# Reference: publication PMC5955916
# No constants are given. Whether binding was seen depends on the method and setting. Binding seen in cells or lysates may run through a third protein. Binding calls can cover weak binding; strength is not graded here. Where a sequence is shown, tags or fusion partners need not be part of it.
# Target: HA-tagged mouse DIC (dynein intermediate chain), full protein (mouse)
# Assay: co-IP; HEK293T cells co-transfected with HA-DIC and GFP-NDE1 WT or GFP-tagged NDE1 fragments; lysed in TNE buffer/1% NP40; anti-HA antibody overnight at 4 °C, rProtein G agarose 6 h at 4 °C, five washes with TNE buffer; western blot with anti-GFP antibody
row,binding,Binder
1,binds,"GFP-tagged mouse NDE1 DIC-binding region (NDE1 BR, amino acids 1-100) (domain or fragment, UniProt Q9CZA6 1-100) MEDSGKTFESEEEETNYWRDLAMTYKQRAENTQEELREFQEGSREYEAELEAQLQQIETRNRDLLSENNRLRMELESVKEKFEMQHSEGYRQISALEDDL"
2,no binding,"GFP-tagged mouse NDE1 C-terminal region (NDE1 Ct, amino acids 176-344) (domain or fragment, UniProt Q9CZA6 176-344) LRQELAVQQKQDKPRTPMPGSGQAKRTDMAVQATGSVPSTPVAHRGPSSGLNTPGMFRRGLDSSTSGTPLTPAARISALNIVGDLLRKVGALESKLASCRNFMYDQSPSRTSGPASGRGTKNRDGVDRRPGSTSVGDKGSGKRLEFGKPASEPASPALPSAQGVVKLLL"
3,binds,"GFP-tagged full-length wild-type mouse NDE1 (NDE1 WT, amino acids 1-344) (protein, UniProt Q9CZA6 1-344) MEDSGKTFESEEEETNYWRDLAMTYKQRAENTQEELREFQEGSREYEAELEAQLQQIETRNRDLLSENNRLRMELESVKEKFEMQHSEGYRQISALEDDLAQTKAIKDQLQKYIRELEQANDDLERAKRATIMSLEDFEQRLNQAIERNAFLESELDEKENLLESVQRLKDEARDLRQELAVQQKQDKPRTPMPGSGQAKRTDMAVQATGSVPSTPVAHRGPSSGLNTPGMFRRGLDSSTSGTPLTPAARISALNIVGDLLRKVGALESKLASCRNFMYDQSPSRTSGPASGRGTKNRDGVDRRPGSTSVGDKGSGKRLEFGKPASEPASPALPSAQGVVKLLL"
4,binds,"GFP-tagged mouse NDE1 N-terminal region (NDE1 Nt, amino acids 1-182) (domain or fragment, UniProt Q9CZA6 1-182) MEDSGKTFESEEEETNYWRDLAMTYKQRAENTQEELREFQEGSREYEAELEAQLQQIETRNRDLLSENNRLRMELESVKEKFEMQHSEGYRQISALEDDLAQTKAIKDQLQKYIRELEQANDDLERAKRATIMSLEDFEQRLNQAIERNAFLESELDEKENLLESVQRLKDEARDLRQELAV"
